Patent US20240376168A1
No constants are given. Whether binding was seen depends on the method and setting. Some binding calls cover weakened binding; strength is not graded here.

Protein sequences, listed by entry. Tags and fused reporters are not part of them. Lines headed by an entry give the natural chain unless they say otherwise; changes in a name come on top. Residues count along the entry.
UniProt Q86Z14, residues 1-996: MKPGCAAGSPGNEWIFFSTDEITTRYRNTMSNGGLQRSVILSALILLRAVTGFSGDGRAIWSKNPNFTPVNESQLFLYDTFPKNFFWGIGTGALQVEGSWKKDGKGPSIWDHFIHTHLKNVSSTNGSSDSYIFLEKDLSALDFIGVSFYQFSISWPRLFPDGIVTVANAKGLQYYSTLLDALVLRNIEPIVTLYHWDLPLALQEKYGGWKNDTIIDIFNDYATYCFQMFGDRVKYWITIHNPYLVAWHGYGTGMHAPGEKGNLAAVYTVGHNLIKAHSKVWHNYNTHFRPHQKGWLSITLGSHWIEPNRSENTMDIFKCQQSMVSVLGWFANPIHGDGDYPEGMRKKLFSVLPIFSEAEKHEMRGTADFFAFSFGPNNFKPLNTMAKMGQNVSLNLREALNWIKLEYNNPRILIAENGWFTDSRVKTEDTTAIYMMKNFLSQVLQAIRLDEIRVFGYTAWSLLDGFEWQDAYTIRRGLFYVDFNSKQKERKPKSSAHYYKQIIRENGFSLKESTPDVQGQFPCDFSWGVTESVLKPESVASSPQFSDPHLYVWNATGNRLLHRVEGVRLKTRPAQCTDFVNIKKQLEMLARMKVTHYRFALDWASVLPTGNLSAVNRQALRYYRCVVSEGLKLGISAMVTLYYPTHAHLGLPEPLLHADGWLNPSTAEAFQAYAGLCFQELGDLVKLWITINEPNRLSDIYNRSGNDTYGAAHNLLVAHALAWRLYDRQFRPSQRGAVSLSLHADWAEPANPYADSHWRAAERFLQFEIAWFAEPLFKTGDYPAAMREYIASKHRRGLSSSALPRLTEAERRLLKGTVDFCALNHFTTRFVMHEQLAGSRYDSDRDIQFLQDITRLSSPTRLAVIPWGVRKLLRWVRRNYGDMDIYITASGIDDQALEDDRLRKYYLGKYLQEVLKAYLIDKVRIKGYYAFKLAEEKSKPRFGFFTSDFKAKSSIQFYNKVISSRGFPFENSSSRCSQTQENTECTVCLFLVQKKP
UniProt Q9NSA1: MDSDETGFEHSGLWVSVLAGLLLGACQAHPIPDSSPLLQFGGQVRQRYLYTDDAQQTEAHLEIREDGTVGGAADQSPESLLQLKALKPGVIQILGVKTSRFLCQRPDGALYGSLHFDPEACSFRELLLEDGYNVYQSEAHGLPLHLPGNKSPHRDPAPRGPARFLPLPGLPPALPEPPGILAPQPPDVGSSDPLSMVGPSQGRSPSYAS

target: extracellular domain of human receptor β-Klotho with a C-terminal Poly-His tag (human) (UniProt Q86Z14); assay: SPR, Biacore-8K

binding, binds:
FGF21 (P171G) mutant 1407 (from UniProt Q9NSA1 29-209) (ligand)
FGF21 (170C/Ins-172S/173C) mutant 1413 (from UniProt Q9NSA1 29-209) (ligand)
FGF21 (Del-P171) mutant 1408 (from UniProt Q9NSA1 29-209) (ligand)
FGF21 (170C/Ins-172G/173C) mutant 1409 (from UniProt Q9NSA1 29-209) (ligand)
FGF21 (170C/173C) mutant 1411 (from UniProt Q9NSA1 29-209) (ligand)
FGF21 (170C/Ins-172A/173C) mutant 1412 (from UniProt Q9NSA1 29-209) (ligand)
